Experimental data: PubChem BioAssay AID1259308 (NCATS, 2017)
Here is a random part of about 59,000 reagents tested. In the full data, about 1,510 (2.6%) got an active call. 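Calls use total luciferase alone and ignore viability, so some active siRNAs may act by altering cell number.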 The numbers tell different reagents against one gene apart. Further read-outs or replicates are left out here.

- Assay: 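Knock-downs that increase output of a recombinant reporter protein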 (primary screen)
- System: human HEK293 embryonic kidney cells stably expressing firefly luciferase (HEK-CMV-Luc2-Hygro)
- Reagents: single siRNA against human genes, 0.8 pmol siRNA per well
- Timing: 72 h
- Measured: 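Luciferase light (ONE-Glo) measured on one replicate plate set and viability (CellTiter-Glo) on the other, scaled to a negative control siRNA, with robust z-scores and luciferase per cell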
- Reading the numbers: total luciferase, z-score: higher = more reporter protein produced
- Call rule: 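An siRNA counts as active if its total luciferase robust z-score exceeds 3; genes with two or more such siRNAs out of three were retested with fresh siRNAs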
- Calls: active = raised luciferase; inactive = no rise

For MAPRE2 #1, what does the deposit list?
total luciferase, z-score: 0.313; outcome: inactive

What is on record for MAPRE2 #2?
total luciferase, z-score: -0.192; outcome: inactive

With MAPRE2 #3, what was measured?
total luciferase, z-score: 1.32; outcome: inactive

What did the screen give for MRGPRF #1?
total luciferase, z-score: 0.496; outcome: inactive

With MRGPRF #2, what was measured?
total luciferase, z-score: 4.61; outcome: active

What is on record for MRGPRF #3?
total luciferase, z-score: 0.932; outcome: inactive

What did the screen give for DMAC2L #1?
total luciferase, z-score: -1.52; outcome: inactive

How did the screen score DMAC2L #2?
total luciferase, z-score: -0.71; outcome: inactive

With DMAC2L #3, what does the deposit list?
total luciferase, z-score: -0.372; outcome: inactive

With NEK3 #1, what does the deposit list?
total luciferase, z-score: -1.28; outcome: inactive

For NEK3 #2, what does the deposit list?
total luciferase, z-score: -0.644; outcome: inactive

What did the screen give for NEK3 #3?
total luciferase, z-score: 1.74; outcome: inactive

Looked up above.
Entry for MAPRE2 #1 in “outcome”: inactive
Result of NEK3 #3 under “outcome”: inactive
